Results deposited as PubChem BioAssay AID1159578 (Peter MacCallum Cancer Centre, 2015)
Assay: 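siRNA pools altering how lymphatic endothelial cells close a scratch wound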 (primary screen). System: human lymphatic endothelial cells. Reagent: siRNA pool against human genes, 40 nM. Timing: 48 h after transfection. Measurement: 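Cells stained with dye and imaged after a scratch; covered wound area and nuclei counted, duplicates averaged, migration set against mock wells and turned into a robust z-score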. Direction: migration robust z-score: higher = faster migration into the scratch; nuclei per well: higher = more cells in the well. Call rule: 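Pools averaging fewer than 3300 nuclei are never called; remaining pools count as changed when migration robust z lies outside -2 to 2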. Meaning of the calls: active = migration changed; inactive = no migration change, or too few cells.
The deposit covers about 18,000 reagents; shown is a part drawn at random. Of all reagents, about 1,030 (5.7%) were called active. 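Inactive calls also include pools with fewer than 3300 nuclei, whose migration was not assessed.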 Raw values are not corrected between plates. Unmarked entries are inactive. Not all columns of the deposit are shown.

ENTPD1 | migration robust z-score: -1.04; nuclei per well, duplicate mean: 4560
STYK1 | migration robust z-score: -3.87 (active); nuclei per well, duplicate mean: 4300
ZNF446 | migration robust z-score: -0.12; nuclei per well, duplicate mean: 4812
TRMT61B | migration robust z-score: -2.82 (active); nuclei per well, duplicate mean: 5366
TMC1 | migration robust z-score: 3.29 (active); nuclei per well, duplicate mean: 8528
C11orf68 | migration robust z-score: 0.51; nuclei per well, duplicate mean: 6014
KLHL41 | migration robust z-score: -0.58; nuclei per well, duplicate mean: 5484
DDX23 | migration robust z-score: 0.68; nuclei per well, duplicate mean: 5204
STRIP1 | migration robust z-score: 0.78; nuclei per well, duplicate mean: 6524
THEMIS2 | migration robust z-score: 0.84; nuclei per well, duplicate mean: 5897
UXT | migration robust z-score: -0.7; nuclei per well, duplicate mean: 5274
DESI1 | migration robust z-score: -1.77; nuclei per well, duplicate mean: 5800

Continued, starting with the last 2 of the part before.
UXT | migration robust z-score: -0.7; nuclei per well, duplicate mean: 5274
DESI1 | migration robust z-score: -1.77; nuclei per well, duplicate mean: 5800
C1orf21 | migration robust z-score: -0.52; nuclei per well, duplicate mean: 4822
KLHL11 | migration robust z-score: 0.22; nuclei per well, duplicate mean: 5799
GPN2 | migration robust z-score: -0.59; nuclei per well, duplicate mean: 6166
DENND2A | migration robust z-score: 0.97; nuclei per well, duplicate mean: 7544
ARV1 | migration robust z-score: -0.03; nuclei per well, duplicate mean: 4978
TBX21 | migration robust z-score: 1.14; nuclei per well, duplicate mean: 4426
MRPS28 | migration robust z-score: 0.84; nuclei per well, duplicate mean: 5734
APTX | migration robust z-score: 0.94; nuclei per well, duplicate mean: 5070
STK35 | migration robust z-score: -5.81; nuclei per well, duplicate mean: 2978
FAM153A | migration robust z-score: 0.65; nuclei per well, duplicate mean: 7206
ATP13A1 | migration robust z-score: -0.83; nuclei per well, duplicate mean: 6553
C6orf47 | migration robust z-score: -0.14; nuclei per well, duplicate mean: 5220
RGL4 | migration robust z-score: -0.02; nuclei per well, duplicate mean: 6374
SORBS1 | migration robust z-score: 0.98; nuclei per well, duplicate mean: 5378
PKHD1 | migration robust z-score: 1.28; nuclei per well, duplicate mean: 5996
